# Data from the supplement of paper PMC10849652.
# By UniProt entry, the sequences of proteins in these tests, tags left out. Where a name states a change or a piece, a line headed by the entry shows the natural chain unless it says otherwise.
# UniProt O60921: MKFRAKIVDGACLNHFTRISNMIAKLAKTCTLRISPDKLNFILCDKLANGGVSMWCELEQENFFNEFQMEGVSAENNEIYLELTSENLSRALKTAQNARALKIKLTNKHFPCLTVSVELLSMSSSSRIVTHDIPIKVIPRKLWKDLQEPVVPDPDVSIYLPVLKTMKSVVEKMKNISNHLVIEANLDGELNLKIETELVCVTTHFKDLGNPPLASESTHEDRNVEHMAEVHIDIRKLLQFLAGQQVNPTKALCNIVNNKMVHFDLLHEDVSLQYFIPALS
# UniProt P05362: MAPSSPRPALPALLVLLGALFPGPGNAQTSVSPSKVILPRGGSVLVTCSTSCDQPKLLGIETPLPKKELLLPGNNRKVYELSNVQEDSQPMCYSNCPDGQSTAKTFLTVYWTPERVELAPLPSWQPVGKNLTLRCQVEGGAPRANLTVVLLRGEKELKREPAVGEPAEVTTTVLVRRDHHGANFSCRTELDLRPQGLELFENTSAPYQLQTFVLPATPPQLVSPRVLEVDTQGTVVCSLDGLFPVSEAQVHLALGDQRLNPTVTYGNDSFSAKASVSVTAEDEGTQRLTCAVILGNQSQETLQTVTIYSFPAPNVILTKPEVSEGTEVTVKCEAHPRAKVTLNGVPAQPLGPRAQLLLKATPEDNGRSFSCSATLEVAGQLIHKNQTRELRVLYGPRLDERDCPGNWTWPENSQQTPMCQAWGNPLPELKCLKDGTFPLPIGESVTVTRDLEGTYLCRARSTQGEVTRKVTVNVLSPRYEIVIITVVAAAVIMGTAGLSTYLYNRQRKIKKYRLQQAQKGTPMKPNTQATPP
# UniProt Q969P0: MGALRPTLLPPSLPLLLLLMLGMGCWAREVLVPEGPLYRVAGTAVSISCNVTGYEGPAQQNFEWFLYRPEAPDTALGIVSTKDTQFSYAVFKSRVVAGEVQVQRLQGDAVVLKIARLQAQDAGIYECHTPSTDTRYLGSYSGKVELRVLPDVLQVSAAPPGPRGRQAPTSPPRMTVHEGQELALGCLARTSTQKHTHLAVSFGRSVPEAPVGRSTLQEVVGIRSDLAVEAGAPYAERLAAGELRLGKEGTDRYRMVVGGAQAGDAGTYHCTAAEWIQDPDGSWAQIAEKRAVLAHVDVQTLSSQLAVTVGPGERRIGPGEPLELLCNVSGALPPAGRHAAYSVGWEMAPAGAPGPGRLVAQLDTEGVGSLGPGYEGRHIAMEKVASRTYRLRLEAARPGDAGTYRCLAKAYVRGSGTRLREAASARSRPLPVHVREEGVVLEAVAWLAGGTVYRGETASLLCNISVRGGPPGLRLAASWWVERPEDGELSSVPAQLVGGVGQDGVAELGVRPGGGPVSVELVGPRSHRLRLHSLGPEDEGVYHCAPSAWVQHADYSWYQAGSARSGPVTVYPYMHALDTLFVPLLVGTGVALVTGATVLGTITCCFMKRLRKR
# UniProt A1L0T0: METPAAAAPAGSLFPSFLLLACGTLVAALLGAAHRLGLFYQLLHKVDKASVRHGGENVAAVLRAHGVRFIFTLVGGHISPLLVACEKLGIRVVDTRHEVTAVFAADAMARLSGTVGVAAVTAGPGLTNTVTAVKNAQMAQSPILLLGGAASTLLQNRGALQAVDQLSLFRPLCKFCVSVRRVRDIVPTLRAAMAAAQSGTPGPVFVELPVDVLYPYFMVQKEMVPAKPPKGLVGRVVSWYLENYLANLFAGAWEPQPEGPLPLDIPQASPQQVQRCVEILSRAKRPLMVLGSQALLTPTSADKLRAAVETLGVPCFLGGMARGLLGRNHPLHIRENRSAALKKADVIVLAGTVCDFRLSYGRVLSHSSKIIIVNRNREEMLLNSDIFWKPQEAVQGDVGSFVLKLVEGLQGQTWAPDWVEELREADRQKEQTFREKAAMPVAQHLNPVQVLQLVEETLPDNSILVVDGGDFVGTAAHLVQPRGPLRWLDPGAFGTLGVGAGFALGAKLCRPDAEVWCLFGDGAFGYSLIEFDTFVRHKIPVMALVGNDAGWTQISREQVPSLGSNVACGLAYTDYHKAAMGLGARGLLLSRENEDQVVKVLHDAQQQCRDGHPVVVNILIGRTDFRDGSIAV
# UniProt Q70UQ0: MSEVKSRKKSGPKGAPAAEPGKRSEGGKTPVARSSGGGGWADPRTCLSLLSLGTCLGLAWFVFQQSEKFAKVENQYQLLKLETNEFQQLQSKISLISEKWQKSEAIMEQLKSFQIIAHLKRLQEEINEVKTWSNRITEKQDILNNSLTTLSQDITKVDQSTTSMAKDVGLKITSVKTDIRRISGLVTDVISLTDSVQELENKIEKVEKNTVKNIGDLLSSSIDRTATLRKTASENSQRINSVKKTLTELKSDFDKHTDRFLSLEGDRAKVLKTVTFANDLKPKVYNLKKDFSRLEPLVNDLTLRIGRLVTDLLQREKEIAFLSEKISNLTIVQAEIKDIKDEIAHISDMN
# UniProt O43837: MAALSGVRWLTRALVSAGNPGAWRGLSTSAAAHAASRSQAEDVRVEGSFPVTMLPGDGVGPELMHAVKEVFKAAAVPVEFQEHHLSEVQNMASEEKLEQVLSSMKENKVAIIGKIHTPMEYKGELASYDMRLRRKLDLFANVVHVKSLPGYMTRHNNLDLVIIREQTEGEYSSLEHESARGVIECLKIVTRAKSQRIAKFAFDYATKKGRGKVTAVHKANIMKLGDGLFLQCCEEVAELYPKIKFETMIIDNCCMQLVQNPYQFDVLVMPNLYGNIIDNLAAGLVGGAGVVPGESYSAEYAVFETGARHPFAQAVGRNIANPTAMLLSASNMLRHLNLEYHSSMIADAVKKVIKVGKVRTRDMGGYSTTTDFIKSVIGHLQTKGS
# UniProt Q27J81, whole entry, looked up: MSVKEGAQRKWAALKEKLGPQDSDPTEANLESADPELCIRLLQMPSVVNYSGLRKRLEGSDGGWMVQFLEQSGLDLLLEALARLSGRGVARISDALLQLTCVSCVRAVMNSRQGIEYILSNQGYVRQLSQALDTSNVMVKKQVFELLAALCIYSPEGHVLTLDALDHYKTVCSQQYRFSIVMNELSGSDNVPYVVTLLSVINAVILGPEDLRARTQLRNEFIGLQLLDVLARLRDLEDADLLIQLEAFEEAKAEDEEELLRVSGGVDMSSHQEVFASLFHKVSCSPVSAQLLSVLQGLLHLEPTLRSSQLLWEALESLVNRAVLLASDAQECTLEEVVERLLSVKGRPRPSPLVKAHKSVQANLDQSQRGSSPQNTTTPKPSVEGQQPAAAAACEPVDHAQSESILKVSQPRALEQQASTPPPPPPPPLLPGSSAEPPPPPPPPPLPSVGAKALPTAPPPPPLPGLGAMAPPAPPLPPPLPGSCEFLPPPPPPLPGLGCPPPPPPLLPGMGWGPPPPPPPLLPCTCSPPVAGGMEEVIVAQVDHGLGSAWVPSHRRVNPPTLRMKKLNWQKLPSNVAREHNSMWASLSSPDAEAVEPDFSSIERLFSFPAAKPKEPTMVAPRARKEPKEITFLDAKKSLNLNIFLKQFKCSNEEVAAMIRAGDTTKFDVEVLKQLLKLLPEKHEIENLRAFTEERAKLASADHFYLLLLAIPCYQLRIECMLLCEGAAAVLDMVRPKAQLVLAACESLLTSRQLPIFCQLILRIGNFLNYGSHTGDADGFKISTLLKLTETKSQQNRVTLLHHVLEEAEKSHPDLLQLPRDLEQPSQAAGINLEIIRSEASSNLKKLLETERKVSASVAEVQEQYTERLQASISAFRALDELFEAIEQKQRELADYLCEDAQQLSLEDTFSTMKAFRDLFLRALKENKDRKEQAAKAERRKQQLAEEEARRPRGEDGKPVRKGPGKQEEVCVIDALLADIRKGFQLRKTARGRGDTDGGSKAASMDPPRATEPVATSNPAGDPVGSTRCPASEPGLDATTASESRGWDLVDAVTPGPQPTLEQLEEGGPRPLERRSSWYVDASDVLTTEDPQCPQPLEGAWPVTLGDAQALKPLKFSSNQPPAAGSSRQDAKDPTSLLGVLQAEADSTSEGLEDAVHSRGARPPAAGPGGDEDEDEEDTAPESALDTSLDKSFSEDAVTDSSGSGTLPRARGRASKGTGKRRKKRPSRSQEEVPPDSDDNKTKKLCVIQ
# UniProt P80217: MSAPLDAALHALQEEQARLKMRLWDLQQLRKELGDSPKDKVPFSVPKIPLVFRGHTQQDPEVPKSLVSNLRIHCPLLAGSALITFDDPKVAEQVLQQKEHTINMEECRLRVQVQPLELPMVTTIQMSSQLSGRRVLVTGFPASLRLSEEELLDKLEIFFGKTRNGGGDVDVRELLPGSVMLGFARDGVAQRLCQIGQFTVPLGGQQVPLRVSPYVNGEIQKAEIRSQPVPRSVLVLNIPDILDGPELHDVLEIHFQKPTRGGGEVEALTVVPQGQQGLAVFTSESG
# UniProt Q9UMF0: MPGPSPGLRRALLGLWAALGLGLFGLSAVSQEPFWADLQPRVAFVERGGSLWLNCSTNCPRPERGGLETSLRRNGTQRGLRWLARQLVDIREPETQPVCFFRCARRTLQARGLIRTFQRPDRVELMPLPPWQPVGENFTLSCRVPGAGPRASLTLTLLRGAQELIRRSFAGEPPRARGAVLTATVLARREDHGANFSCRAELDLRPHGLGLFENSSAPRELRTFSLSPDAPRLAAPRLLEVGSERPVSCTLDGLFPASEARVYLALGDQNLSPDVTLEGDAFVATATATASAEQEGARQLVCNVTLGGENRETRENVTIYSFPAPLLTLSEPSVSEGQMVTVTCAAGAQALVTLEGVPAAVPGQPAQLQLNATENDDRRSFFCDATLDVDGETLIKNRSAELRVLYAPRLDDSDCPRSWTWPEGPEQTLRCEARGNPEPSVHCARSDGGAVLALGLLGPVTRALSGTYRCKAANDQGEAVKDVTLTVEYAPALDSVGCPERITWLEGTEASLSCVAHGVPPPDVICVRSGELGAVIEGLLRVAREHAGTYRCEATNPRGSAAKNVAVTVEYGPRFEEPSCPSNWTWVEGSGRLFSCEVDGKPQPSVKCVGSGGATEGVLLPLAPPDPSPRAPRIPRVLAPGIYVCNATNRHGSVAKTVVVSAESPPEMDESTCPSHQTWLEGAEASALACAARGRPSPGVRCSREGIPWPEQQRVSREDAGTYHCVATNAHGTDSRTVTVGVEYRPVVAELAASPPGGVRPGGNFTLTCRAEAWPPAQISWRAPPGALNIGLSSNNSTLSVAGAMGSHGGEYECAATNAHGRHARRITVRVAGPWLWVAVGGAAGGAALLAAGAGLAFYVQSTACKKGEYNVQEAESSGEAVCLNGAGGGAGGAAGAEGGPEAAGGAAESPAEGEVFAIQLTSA
# UniProt O15357: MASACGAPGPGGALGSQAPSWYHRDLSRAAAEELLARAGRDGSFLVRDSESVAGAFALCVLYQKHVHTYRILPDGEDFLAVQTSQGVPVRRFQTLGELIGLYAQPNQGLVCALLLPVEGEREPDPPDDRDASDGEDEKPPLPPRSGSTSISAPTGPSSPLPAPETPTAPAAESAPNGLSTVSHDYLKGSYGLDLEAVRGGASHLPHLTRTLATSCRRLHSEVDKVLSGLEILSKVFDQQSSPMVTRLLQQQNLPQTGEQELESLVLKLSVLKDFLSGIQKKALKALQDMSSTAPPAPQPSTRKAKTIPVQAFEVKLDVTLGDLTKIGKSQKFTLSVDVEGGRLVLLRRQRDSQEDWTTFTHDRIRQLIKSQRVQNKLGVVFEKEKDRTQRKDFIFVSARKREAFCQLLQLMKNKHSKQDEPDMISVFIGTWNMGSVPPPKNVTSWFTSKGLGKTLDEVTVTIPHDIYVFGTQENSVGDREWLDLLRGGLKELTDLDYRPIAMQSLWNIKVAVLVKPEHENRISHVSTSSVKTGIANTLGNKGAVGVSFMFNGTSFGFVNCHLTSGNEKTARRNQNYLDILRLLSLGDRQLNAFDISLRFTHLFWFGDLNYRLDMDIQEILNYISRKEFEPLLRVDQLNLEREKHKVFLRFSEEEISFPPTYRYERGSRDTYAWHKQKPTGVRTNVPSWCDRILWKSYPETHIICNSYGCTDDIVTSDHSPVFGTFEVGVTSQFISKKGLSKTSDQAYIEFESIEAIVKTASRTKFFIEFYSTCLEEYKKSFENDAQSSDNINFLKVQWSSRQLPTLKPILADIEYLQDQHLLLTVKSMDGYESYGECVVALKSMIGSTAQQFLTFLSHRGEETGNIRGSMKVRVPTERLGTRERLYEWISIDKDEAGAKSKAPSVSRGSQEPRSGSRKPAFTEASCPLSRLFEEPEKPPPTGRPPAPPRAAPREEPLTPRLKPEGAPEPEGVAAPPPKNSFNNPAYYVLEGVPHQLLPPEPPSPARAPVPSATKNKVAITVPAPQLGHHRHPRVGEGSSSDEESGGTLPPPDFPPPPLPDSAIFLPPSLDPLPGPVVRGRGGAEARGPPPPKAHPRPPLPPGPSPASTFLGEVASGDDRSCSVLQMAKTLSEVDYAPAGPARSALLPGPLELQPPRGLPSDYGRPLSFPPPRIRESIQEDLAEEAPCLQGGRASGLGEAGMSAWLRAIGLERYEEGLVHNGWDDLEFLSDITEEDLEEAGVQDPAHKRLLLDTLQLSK
# The list shows a part of the results.
# Key:
# Test in all cases: log2 fold change, soluble protein after heating vs DMSO (PISA); higher = thermal stabilisation; K562 lysate, 10 uM; active = over 0.2 and 3.5 SD of the protein, either way, in both replicates (recomputed)
# nilotinib = compound: Cc1cn(-c2cc(NC(=O)c3ccc(C)c(Nc4nccc(-c5cccnc5)n4)c3)cc(C(F)(F)F)c2)cn1 [nilotinib]
# Outline: (§1)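 Pellets of K562 cells were dounce-homogenised in PBS pH 7.4 with 1 mM MgCl2, and the crude extract was held at 1 mg/mL protein for a 30 min treatment with 10 μM compound. Aliquots were heated for 3 min over 48°C-58°C and pooled before NP-40 was added to 0.5% at 4°C. The supernatant from 21,000xg for 90 min was quantified by TMTpro 16plex LC-MS/MS with channel sums equalised. Values are reported from duplicates as log-two fold change in thermal stability relative to solvent controls.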
# [1] = compound: Cc1nc(Nc2n[nH]c3c2CN(C(=O)N[C@H](CN(C)C)c2ccccc2)C3(C)C)c2sccc2n1
# Outline: as §1
# dasatinib = compound: Cc1nc(Nc2ncc(C(=O)Nc3c(C)cccc3Cl)s2)cc(N2CCN(CCO)CC2)n1 [dasatinib]
# Outline: as §1
# [2] = compound: Cc1ncc(-c2ccnc(Nc3ccc(S(C)(=O)=O)cc3)n2)n1C(C)C
# Outline: as §1
# [3] = compound: Cn1cc(-c2ccc3c(c2)CCN3C(=O)Cc2cccc(C(F)(F)F)c2)c2c(N)ncnc21
# Outline: as §1
# quisinostat = compound: Cn1cc(CNCC2CCN(c3ncc(C(=O)NO)cn3)CC2)c2ccccc21 [quisinostat]
# Outline: as §1
# tipifarnib = compound: Cn1cncc1[C@@](N)(c1ccc(Cl)cc1)c1ccc2c(c1)c(-c1cccc(Cl)c1)cc(=O)n2C [tipifarnib]
# Outline: as §1
# [4] = compound: NC(=O)Nc1cc(-c2cccc(F)c2)sc1C(=O)N[C@H]1CCCNC1
# Outline: as §1
# [5] = compound: NC(=O)c1cnc(N[C@@H]2CCCC[C@@H]2N)nc1Nc1cccc(-n2nccn2)c1
# Outline: as §1
# [6] = compound: NC1(c2ccc(-c3nc4ccn5c(=O)[nH]nc5c4cc3-c3ccccc3)cc2)CCC1
# Outline: as §1
# [7] = compound: NCC(=O)Nc1ccc(-n2nc(C(F)(F)F)cc2-c2ccc3c(ccc4ccccc43)c2)cc1
# Outline: as §1
# vorinostat = compound: O=C(CCCCCCC(=O)Nc1ccccc1)NO [vorinostat]
# Outline: as §1
# silmitasertib = compound: O=C(O)c1ccc2c(c1)nc(Nc1cccc(Cl)c1)c1ccncc12 [silmitasertib]
# Outline: as §1
# [8] = compound: O=C1NC(=O)C(c2cnc3ccccn23)=C1c1cn2c3c(cc(F)cc13)CN(C(=O)N1CCCCC1)CC2
# Outline: as §1
# entospletinib = compound: c1cn2cc(-c3ccc4cn[nH]c4c3)nc(Nc3ccc(N4CCOCC4)cc3)c2n1 [entospletinib]
# Outline: as §1
Target,log2 fold change (nilotinib),log2 fold change [1],log2 fold change (dasatinib),log2 fold change [2],log2 fold change [3],log2 fold change (quisinostat),log2 fold change (tipifarnib),log2 fold change [4],log2 fold change [5],log2 fold change [6],log2 fold change [7],log2 fold change (vorinostat),log2 fold change (silmitasertib),log2 fold change [8],log2 fold change (entospletinib)
HUS1 (UniProt O60921),inactive: 0.003,inactive: 0.03,inactive: 0.019,inactive: -0.01,inactive: -0.017,inactive: -0.034,inactive: -0.011,inactive: 0.01,inactive: 0.016,inactive: -0.022,inactive: 0.04,inactive: 0.029,inactive: -0.026,inactive: -0.025,inactive: 0.003
IBA57 (UniProt Q5T440),inactive: -0.013,inactive: -0.007,inactive: 0.003,inactive: -0.015,inactive: 0,inactive: 0.072,inactive: -0.014,inactive: 0.004,inactive: 0.009,inactive: -0.02,inactive: 0.027,inactive: 0.063,inactive: 0.024,inactive: -0.041,inactive: -0.028
IGF2R (UniProt P11717),inactive: 0.013,inactive: -0.003,inactive: 0.022,inactive: -0.022,inactive: 0.012,inactive: -0.052,inactive: 0.004,inactive: 0.002,inactive: -0.013,inactive: 0.001,inactive: -0.006,inactive: 0.085,inactive: 0.01,inactive: 0.006,inactive: -0.014
ICAM1 (UniProt P05362),inactive: 0.073,inactive: 0.021,inactive: -0.002,inactive: -0.015,inactive: -0.006,inactive: 0.061,inactive: -0.033,inactive: 0.008,inactive: -0.029,inactive: 0.012,inactive: 0.022,inactive: 0.072,inactive: -0.004,inactive: 0.018,inactive: 0.009
IGSF8 (UniProt Q969P0),inactive: 0.025,inactive: -0.106,inactive: 0,inactive: -0.117,inactive: 0.034,inactive: -0.077,inactive: 0.048,inactive: -0.012,inactive: 0.021,inactive: -0.006,inactive: 0.084,inactive: 0.075,inactive: 0.033,inactive: 0.074,inactive: 0.117
ILVBL (UniProt A1L0T0),inactive: 0.068,inactive: 0.066,inactive: -0.014,inactive: 0.05,inactive: -0.014,inactive: 0.082,inactive: -0.04,inactive: 0,inactive: -0.106,inactive: -0.017,inactive: 0.033,inactive: 0.033,inactive: 0,inactive: 0.007,inactive: 0.004
IKBIP isoform 4 (UniProt Q70UQ0),inactive: 0.016,inactive: 0.024,inactive: 0.009,inactive: -0.005,inactive: 0.01,inactive: -0.032,inactive: -0.043,inactive: 0.007,inactive: 0.007,inactive: -0.014,inactive: 0.014,inactive: 0.125,inactive: 0.035,inactive: -0.03,inactive: 0.009
IDH3B (UniProt O43837),inactive: 0.007,inactive: -0.017,inactive: 0.003,inactive: 0.008,inactive: 0.019,inactive: 0.018,inactive: 0.041,inactive: -0.008,inactive: -0.01,inactive: 0.014,inactive: 0.034,inactive: 0.068,inactive: -0.013,inactive: -0.018,inactive: 0.004
IKBIP (UniProt Q70UQ0),inactive: -0.087,inactive: -0.017,inactive: 0.005,inactive: 0.06,inactive: -0.012,inactive: 0.052,inactive: -0.049,inactive: 0.012,inactive: -0.024,inactive: -0.026,inactive: -0.031,inactive: 0.166,inactive: -0.004,inactive: -0.042,inactive: -0.032
INTS13 (UniProt Q9NVM9),inactive: -0.032,inactive: 0.017,inactive: -0.04,inactive: -0.019,inactive: 0.027,inactive: 0.002,inactive: 0,inactive: 0.031,inactive: 0.001,inactive: 0.028,inactive: 0.02,inactive: -0.166,inactive: 0.02,inactive: -0.027,inactive: -0.022
IMPDH2 (UniProt P12268),inactive: 0,inactive: -0.009,inactive: -0.036,inactive: -0.009,inactive: 0.004,inactive: -0.073,inactive: 0.029,inactive: 0.006,inactive: -0.016,inactive: 0.031,inactive: 0.002,active: -1.14,inactive: 0.004,inactive: 0.004,inactive: 0.014
IMMT (UniProt C9J406),inactive: -0.044,inactive: 0.09,inactive: 0.045,inactive: 0.012,inactive: 0.051,inactive: 0.022,inactive: -0.03,inactive: 0,inactive: 0.023,inactive: -0.038,inactive: -0.084,inactive: 0.174,inactive: 0.092,inactive: -0.002,inactive: -0.172
INF2 (UniProt Q27J81),inactive: -0.08,inactive: 0.055,inactive: 0.032,inactive: 0.034,inactive: -0.013,inactive: -0.051,inactive: -0.079,inactive: 0.023,inactive: 0.005,inactive: -0.035,inactive: -0.023,active: -0.333,inactive: -0.027,inactive: 0.018,inactive: -0.09
HSPD1 (UniProt P10809),inactive: 0.019,inactive: -0.012,inactive: 0.001,inactive: 0.013,inactive: -0.008,inactive: 0,inactive: -0.003,inactive: -0.02,inactive: -0.004,inactive: 0.024,inactive: 0.007,inactive: 0.129,inactive: 0,inactive: 0.012,inactive: -0.005
IFI35 isoform 2 (UniProt P80217),inactive: -0.025,inactive: 0.014,inactive: -0.025,inactive: -0.026,inactive: -0.024,inactive: -0.065,inactive: -0.003,inactive: -0.015,inactive: -0.001,inactive: -0.025,inactive: 0.003,inactive: 0.059,inactive: -0.023,inactive: -0.014,inactive: -0.006
ICAM5 (UniProt Q9UMF0),inactive: -0.016,inactive: 0.055,inactive: 0.054,inactive: 0.036,inactive: -0.01,inactive: -0.022,inactive: -0.071,inactive: 0.052,inactive: 0.022,inactive: -0.042,inactive: -0.013,inactive: 0.059,inactive: -0.034,inactive: -0.013,inactive: -0.017
IDH1 (UniProt O75874),inactive: 0.01,inactive: -0.001,inactive: -0.043,inactive: 0,inactive: 0.019,inactive: 0.009,inactive: 0,inactive: 0.013,inactive: 0.01,inactive: -0.011,inactive: 0.032,inactive: -0.051,inactive: 0.017,inactive: -0.009,inactive: 0.023
IL10RB (UniProt Q08334),inactive: 0.003,inactive: -0.035,inactive: 0.068,inactive: 0.132,inactive: -0.057,inactive: 0.002,inactive: -0.154,inactive: -0.016,inactive: 0.004,inactive: -0.068,inactive: -0.015,inactive: -0.062,inactive: 0.074,inactive: -0.051,inactive: -0.007
INPPL1 (UniProt O15357),inactive: -0.007,inactive: -0.001,inactive: -0.031,inactive: -0.02,inactive: 0.035,inactive: 0,inactive: -0.026,inactive: 0.032,inactive: 0.028,inactive: 0.003,inactive: 0.025,active: -0.528,inactive: 0.057,inactive: 0.017,inactive: -0.015
